Data reported in PMC7865754, “Design and Synthesis of π-Extended Resveratrol Analogues and In Vitro Antioxidant and Anti-Inflammatory Activity Evaluation” (Molecules, 2021).

System: NO production in LPS-treated RAW 264.7 cells
Assay: Inhibition of NO production (Griess assay, nitrite) in LPS-treated RAW 264.7 cells
Assay type: cell-based, Murine
Conditions: ratio of toxicity (LD50) / anti-inflammatory potency (ED50)
Text: In the pathogenesis of inflammatory-related disorders, NO is recognized as one of the important mediators. […] Herein, to understand the anti-inflammatory properties of the resveratrol analogues, we studied their inhibitory effects against NO production in LPS-treated RAW 264.7 cells. Although it is not possible to measure NO quantitatively in a biological environment due to its rapid oxidation to NO2 (nitrite), short physiological half-life and presence of other free radicals, NO secretion activity in cells is indirectly determined by Griess assay counting its stable product NO2 levels. The inhibitory effects of 1–7 on NO production were collected in Table 2. […] Cell viability was not affected up to 50 μM except for 2. We also applied in vitro efficacy index (iEI) paradigm, the ratio of toxicity (LD50)/anti-inflammatory potency (ED50), to confirm that the anti-inflammatory activity is in the viable cells only. […] On the whole, compounds 5 and 7 have much-improved iEI values compared to any other compounds.
Anti-inflammatory activity was measured as the effect of compounds on inhibiting NO production versus cell viability. Their inhibitory effect was also tested for pro-inflammatory cytokine gene expression. […]
NO assay and cell viability test
Murine macrophage, Raw 264.7 cells were grown in Dulbecco’s modified Eagle’s medium (Gibco, Carlsbad , CA, USA), supplemented with 2 mM glutamine, antibiotics (100 U/mL of penicillin A and […] of streptomycin) and 10% FBS (Gibco). Cells were cultured in 96-well plates (5×10^4 cells), treated with serial dilutions of compound (3.125-100 µM) and stimulated with LPS (1 µg/mL) for 24 h at 37°C. After incubation, the supernatant was collected and the amount of nitrite was quantified using the Griess Reagent System ( Promega, Fitchburg, WI, USA ). For the correction of NO production, cell viability was measured using the CellTiter 96® Aqueous one solution cell proliferation assay kit (Promega). Cells were incubated with varying amounts of compound for 24 h, then MTS (tetrazolium salt) reagent was added to the plates. After 1h, the absorbance at 490 nm was read using a microplate reader (Thermo Scientific, Waltham, MA, USA).
Statistical analysis. Statistical significance was analyzed using the GraphPad Prism 5 software (GraphPad Software, San Diego, CA, USA). The comparison of two groups was performed by the unpaired t test. Values of *P less than 0.05, **P less than 0.01 and ***P less than 0.001 were considered statistically significant.

Compound | iEI (LD50/ED50), in vitro efficacy index
Oc1cc(O)cc(/C=C/c2ccc3cc(O)ccc3c2)c1 [Compound 2] | 0.98
Oc1cc(O)cc(/C=C/c2cnc3cc(O)ccc3c2)c1 [Compound 3] | 3.75
Oc1cc(O)cc(/C=C/c2ccc3cc(O)ccc3n2)c1 [Compound 4] | 3.18
Oc1cc(O)cc(/C=C/c2cc3ccc(O)cc3cn2)c1 [Compound 5] | 4.84
Oc1cc(O)cc(/C=C/c2cnc3cc(O)ccc3n2)c1 [Compound 6] | 2.11
Oc1cc(O)cc(/C=C/c2ncc3cc(O)ccc3n2)c1 [Compound 7] | 4.27
